{"source": "paper PMC8442339", "binders": {"B1": {"name": "Eukaryotic translation initiation factor 5B (eIF5B) (protein, UniProt O60841 1-1220)", "chain": "MGKKQKNKSEDSTKDDIDLDALAAEIEGAGAAKEQEPQKSKGKKKKEKKKQDFDEDDILKELEELSLEAQGIKADRETVAVKPTENNEEEFTSKDKKKKGQKGKKQSFDDNDSEELEDKDSKSKKTAKPKVEMYSGSDDDDDFNKLPKKAKGKAQKSNKKWDGSEEDEDNSKKIKERSRINSSGESGDESDEFLQSRKGQKKNQKNKPGPNIESGNEDDDASFKIKTVAQKKAEKKERERKKRDEEKAKLRKLKEKEELETGKKDQSKQKESQRKFEEETVKSKVTVDTGVIPASEEKAETPTAAEDDNEGDKKKKDKKKKKGEKEEKEKEKKKGPSKATVKAMQEALAKLKEEEERQKREEEERIKRLEELEAKRKEEERLEQEKRERKKQKEKERKERLKKEGKLLTKSQREARARAEATLKLLQAQGVEVPSKDSLPKKRPIYEDKKRKKIPQQLESKEVSESMELCAAVEVMEQGVPEKEETPPPVEPEEEEDTEDAGLDDWEAMASDEETEKVEGNKVHIEVKENPEEEEEEEEEEEEDEESEEEEEEEGESEGSEGDEEDEKVSDEKDSGKTLDKKPSKEMSSDSEYDSDDDRTKEERAYDKAKRRIEKRRLEHSKNVNTEKLRAPIICVLGHVDTGKTKILDKLRHTHVQDGEAGGITQQIGATNVPLEAINEQTKMIKNFDRENVRIPGMLIIDTPGHESFSNLRNRGSSLCDIAILVVDIMHGLEPQTIESINLLKSKKCPFIVALNKIDRLYDWKKSPDSDVAATLKKQKKNTKDEFEERAKAIIVEFAQQGLNAALFYENKDPRTFVSLVPTSAHTGDGMGSLIYLLVELTQTMLSKRLAHCEELRAQVMEVKALPGMGTTIDVILINGRLKEGDTIIVPGVEGPIVTQIRGLLLPPPMKELRVKNQYEKHKEVEAAQGVKILGKDLEKTLAGLPLLVAYKEDEIPVLKDELIHELKQTLNAIKLEEKGVYVQASTLGSLEALLEFLKTSEVPYAGINIGPVHKKDVMKASVMLEHDPQYAVILAFDVRIERDAQEMADSLGVRIFSAEIIYHLFDAFTKYRQDYKKQKQEEFKHIAVFPCKIKILPQYIFNSRDPIVMGVTVEAGQVKQGTPMCVPSKNFVDIGIVTSIEINHKQVDVAKKGQEVCVKIEPIPGESPKMFGRHFEATDILVSKISRQSIDALKDWFRDEMQKSDWQLIVELKKVFEII"}}, "target": "T1, Wild-type p53-induced gene 1 (Wig1), Flag-tagged (UniProt Q9HA38)", "T1 sequence": "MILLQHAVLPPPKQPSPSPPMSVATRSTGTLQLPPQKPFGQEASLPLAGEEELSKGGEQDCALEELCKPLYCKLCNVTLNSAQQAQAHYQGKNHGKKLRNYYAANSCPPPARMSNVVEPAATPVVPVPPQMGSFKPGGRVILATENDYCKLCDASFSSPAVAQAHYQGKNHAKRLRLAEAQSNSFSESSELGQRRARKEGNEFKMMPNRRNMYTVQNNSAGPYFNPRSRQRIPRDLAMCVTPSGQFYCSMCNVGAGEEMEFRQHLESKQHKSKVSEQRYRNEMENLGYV", "assay": "co-IP; lysate of transfected prostate cancer cells 48 h after transfection (Wig1-Flag group against control group); lysis buffer 20 mm/L Tris HCl, 1% np40, 150 mmol/L NaCl, 10% glycerol, protease inhibitors; cleared with Protein G Agarose beads; target protein antibodies added; SDS-PAGE and Western blot", "note": "These are yes or no findings as the source states them, for the method shown. In cells and extracts the contact can be indirect. Some binding calls cover weakened binding; strength is not graded here. Where a sequence is shown, tags or fusion partners need not be part of it.", "data": [{"binder": "B1", "values": [{"measurement": "binding", "value": "binds"}]}]}
